# Laboratory results taken from PubChem BioAssay AID493147 (Broad Institute, 2011).
# The shares of active, inactive and inconclusive entries below differ from those in the screen. The source made the active and inactive calls. No rule for the calls is given here.
# Assay: PubChem AID 493147
# Conditions: NIH-3T3 viability with fluconazole, Alamar Blue, 48 h; at 26 µM (top of the series) unless noted
row,Compound,"activity change, negative = toxicity"
1,COC(=O)CCn1nc(-c2ccccc2)c2ccccc21,inconclusive: -31.8%
2,N#Cc1cccc(N2CCN(C(=O)c3ccc(Cl)cc3)CC2)n1,inactive: -27.5%
3,CN(C)C(=O)Cn1nc(-c2ccccc2)c2ccccc21,inconclusive: -33.9%
4,COC(=O)Cn1nc(-c2cccc(C)c2)c2ccccc21,inconclusive: 0.425%
5,CCOC(=O)c1nn(Cc2ccc(Cl)cc2)c2ccccc12,inconclusive: -15.1%
6,COC(=O)CCCn1nc(-c2ccccc2)c2ccccc21,inactive: -45%
7,COc1ccc2c(c1)c1nc3n(c(=O)c1n2CC(=O)N1CCC(C)CC1)CCS3,inactive: 41.3% [at 2.6 µM]
8,N#Cc1cccnc1N1CCN(C(=O)c2ccc(Cl)cc2)CC1,inconclusive: -26.7%
9,CC1CCN(C(=O)Cn2c3ccc(F)cc3c3nc4n(c(=O)c32)CCCS4)CC1,inconclusive: -30.9%
10,COC(=O)Cn1nc(-c2ccccc2)c2ccc(C#N)cc21,inconclusive: -21.7%
11,COCCC(=O)N1CCN(c2ccccn2)CC1,inactive: 2.45%
12,CCCCC(=O)N1CCN(c2ccccn2)CC1,inactive: 5.32%
13,COC(=O)[C@@H](C)n1nc(-c2ccccc2)c2ccccc21 (racemic),inactive: -17.9%
14,COC(=O)Cn1nc(-c2ccccc2)c2ccc(F)cc21,inconclusive: -35.4%
15,COC(=O)Cn1nc(-c2ccc(F)cc2)c2ccccc21,inactive: -40.8%
16,CCN(CC)C(=O)Cn1c2ccc(F)cc2c2nc3n(c(=O)c21)CCS3,inactive: -39.8%
17,CCCCn1nc(-c2ccccc2)c2ccccc21,inconclusive: -46.6%
18,Cc1ccc(C(=O)N2CCN(c3ccccn3)CC2)cc1,inconclusive: -19.1%

# Pulled one by one from above, 2 records:
row,Compound,"activity change, negative = toxicity"
13,COC(=O)[C@@H](C)n1nc(-c2ccccc2)c2ccccc21 (racemic),inactive: -17.9%
3,CN(C)C(=O)Cn1nc(-c2ccccc2)c2ccccc21,inconclusive: -33.9%

# The list continues:

row,Compound,"activity change, negative = toxicity"
1,CCC(=O)Cn1nc(-c2ccccc2)c2ccccc21,inconclusive: -42.6%
2,O=C(Cn1c2ccccc2c2nc3n(c(=O)c21)CCCS3)c1ccc(F)cc1,inconclusive: -34.6%
3,O=C(Cn1c2ccccc2c2ccncc21)N1CCCCC1,inconclusive: -35.9%
4,CC1CCN(C(=O)Cn2c3ccccc3c3nc4n(c(=O)c32)CCCS4)CC1,inconclusive: -23.5%
5,O=C(Cn1c2ccc(F)cc2c2nc3n(c(=O)c21)CCS3)N1CCCC1,inconclusive: -32.4%
6,CCN(CC)C(=O)Cn1c2ccccc2c2nc3n(c(=O)c21)CCS3,inconclusive: -27.4%
7,COC(=O)C(C)(C)n1nc(-c2ccccc2)c2ccccc21,inactive: -1.11%
8,CCOC(=O)c1c2ccccc2nn1Cc1ccc(Cl)cc1,inconclusive: -33.5%
9,c1ccc(-c2nn(Cc3nn[nH]n3)c3ccccc23)cc1,inconclusive: -36%
10,c1ccc(-c2n[nH]c3ccccc23)cc1,inconclusive: -23.6%
11,COC(=O)Cn1nc(-c2cncnc2)c2ccccc21,inconclusive: -2.47% [at 19.5 µM]
12,O=C(Cn1nc(-c2ccccc2)c2ccccc21)N1CCc2ccccc2C1,inconclusive: -34.8%
13,COC(=O)Cn1nc(-c2ccccc2)c2cc(F)ccc21,inconclusive: 9.35%
14,N#CCn1nc(-c2ccccc2)c2ccccc21,inactive: 8%
15,COC(=O)Cn1nc(-c2ccccc2)c2cccc(C(F)(F)F)c21,inconclusive: -30.2%
16,FC(F)(F)c1ccc(-c2n[nH]c3ccccc23)cc1,inconclusive: -67.1%
17,CCOC(=O)Cn1nc(-c2ccccc2)c2ccccc21,inconclusive: -32%
